From publication PMC10560298
These are yes or no findings as the source states them, for the method shown. A result given as binding can be weak or reduced; the word gives no strength. Values belong to the molecule of their own block, whether it stands above or below them.

Columns and labels:
[1] = target: T1, uroplakin II (UPII), porcine, prosequence and mature part together (porcine (Sus scrofa; endogenous in urinary bladder)) (UniProt Q95L04); assay: cryo-EM structure; native AUM isolated from porcine bladder, 0.05 mg/ml in buffer A (10 mM Hepes pH 7.4, 1 mM EDTA); single particle analysis of specimens tilted 0-55 degrees, C6 symmetry; global resolution 3.5 Å (3.2 Å transverse, 6.3 Å vertical); model started from an AlphaFold prediction; both purified
T1 sequence 1: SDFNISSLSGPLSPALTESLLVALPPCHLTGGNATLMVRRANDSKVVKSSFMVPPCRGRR
T1 sequence 2: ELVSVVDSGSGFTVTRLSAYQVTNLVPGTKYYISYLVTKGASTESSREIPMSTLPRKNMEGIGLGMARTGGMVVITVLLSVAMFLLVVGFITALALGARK

[2] = target: uroplakin IIIa (UPIIIa), porcine (porcine (Sus scrofa; endogenous in urinary bladder)); assay: as above

binding [1]: binds
Molecule: uroplakin Ia (UPIa), porcine

binding [2]: binds
B1: uroplakin II (UPII), porcine, prosequence and mature part together (protein, UniProt Q95L04 25-84; Q95L04 85-184)
chain 1: T1 sequence 1
chain 2: T1 sequence 2
